## Assay results

Data taken from PubChem BioAssay AID504749, deposited by NCATS (2011).

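Malaria parasite (P. falciparum) lines kept in red blood cells; parasite DNA is measured by SYBR Green fluorescence after lysis, 72 h after compound addition.
Each compound was titrated across a series from about 0.000037 to 29 µM.
The number is the fitted AC50, the concentration giving a half-maximal change in signal; a lower value means higher potency, whether the curve shows a decrease or an increase.
Calls follow the curve class and fit quality: every row here is inconclusive, covering signal-raising curves and weak, poorly fitted, partial or highest-dose-only inhibition curves.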

Values are in nM.
Every entry below has the call inconclusive.
These entries are mostly ones the record files as inconclusive; other results of the assay are not listed here.
Potencies fitted to partial, single-point or poorly fitting curves are rough.
Some entries filed as inconclusive have a full curve.
The first word of each remark tells which way the curve ran; it can be opposite to the aim of the assay.

compound | condition | potency (nM) | curve
O=C1/C(=C\c2cccs2)CCC/C1=C/c1cccs1 | CP191 | 6310 | inhibitor, partial curve, poor fit
NNC(=O)CP(=O)(c1ccccc1)c1ccccc1 | W2 | 1.2 | inhibitor, partial curve, poor fit
NC(=O)c1cc[n+](CC2=C(C(=O)O)N3C(=O)[C@@H](NC(=O)[C@H](c4ccccc4)S(=O)(=O)[O-])[C@@H]3SC2)cc1 | CP329 | 8087 | inhibitor, single point
CCCCCCCCCCCCCCCC[N+](C)(C)CC | PC49 | 11220 | inhibitor, single point
CCCCCCCCCCCCCCCC[N+](C)(C)CC | JCK | 10000 | inhibitor, single point
Clc1ccccc1Cl | parasite line B | 17782 | inhibitor, single point
CCn1cc(C(=O)O)c(=O)c2cc(F)c(N3CCN[C@@H](C)C3)c(F)c21 | JCK | 12589 | inhibitor, single point
CCn1cc(C(=O)O)c(=O)c2cc(F)c(N3CCN[C@@H](C)C3)c(F)c21 | CP335 | 13459 | inhibitor, single point
CCn1cc(C(=O)O)c(=O)c2cc(F)c(N3CCN[C@@H](C)C3)c(F)c21 | CP305 | 8492 | inhibitor, partial curve, poor fit
CCn1cc(C(=O)O)c(=O)c2cc(F)c(N3CCN[C@@H](C)C3)c(F)c21 | TAB109 | 5012 | inhibitor, partial curve
CCn1cc(C(=O)O)c(=O)c2cc(F)c(N3CCN[C@@H](C)C3)c(F)c21 | CP286 | 11220 | inhibitor, single point
CCn1cc(C(=O)O)c(=O)c2cc(F)c(N3CCN[C@@H](C)C3)c(F)c21 | CP268 | 6012 | inhibitor, partial curve, poor fit
CCn1cc(C(=O)O)c(=O)c2cc(F)c(N3CCN[C@@H](C)C3)c(F)c21 | CP325 | 5358 | inhibitor, partial curve
CCn1cc(C(=O)O)c(=O)c2cc(F)c(N3CCN[C@@H](C)C3)c(F)c21 | TAB113 | 2818 | inhibitor, single point
CCn1cc(C(=O)O)c(=O)c2cc(F)c(N3CCN[C@@H](C)C3)c(F)c21 | CP291 | 11995 | inhibitor, partial curve, poor fit
CNC(=O)OCC[N+](C)(C)C | CP211 | 6 | activator
CCOc1ccc2nc(S(N)(=O)=O)sc2c1 | CP291 | 16944 | inhibitor, single point
CCOc1ccc2nc(S(N)(=O)=O)sc2c1 | P93_24 | 5012 | inhibitor, partial curve
CCOc1ccc2nc(S(N)(=O)=O)sc2c1 | PC15 | 12589 | inhibitor, single point
CCOc1ccc2nc(S(N)(=O)=O)sc2c1 | ATS95 | 17782 | inhibitor, single point
CCOc1ccc2nc(S(N)(=O)=O)sc2c1 | P94_40 | 2818 | inhibitor, full curve
CCOc1ccc2nc(S(N)(=O)=O)sc2c1 | CP211 | 21.3 | activator
NS(=O)(=O)c1cc([C@@]2(O)NC(=O)c3ccccc32)ccc1Cl | CP266 | 6.4 | inhibitor, full curve, poor fit
CN(C)c1ccc2nc3ccc(=[N+](C)C)cc-3sc2c1 | JCK | 4467 | inhibitor, partial curve, poor fit
CN(C)c1ccc2nc3ccc(=[N+](C)C)cc-3sc2c1 | PC15 | 14.1 | inhibitor, full curve, poor fit
CN(C)c1ccc(C(=C2C=CC(=[N+](C)C)C=C2)c2c(O)c(S(=O)(=O)[O-])cc3cc(S(=O)(=O)O)ccc23)cc1 | 7G8 | 11220 | inhibitor, single point
CN(C)c1ccc(C(=C2C=CC(=[N+](C)C)C=C2)c2c(O)c(S(=O)(=O)[O-])cc3cc(S(=O)(=O)O)ccc23)cc1 | DIV17 | 19011 | inhibitor, single point
CN(C)c1ccc(C(=C2C=CC(=[N+](C)C)C=C2)c2c(O)c(S(=O)(=O)[O-])cc3cc(S(=O)(=O)O)ccc23)cc1 | DIV14 | 13459 | inhibitor, partial curve, poor fit
CN(C)c1ccc(C(=C2C=CC(=[N+](C)C)C=C2)c2c(O)c(S(=O)(=O)[O-])cc3cc(S(=O)(=O)O)ccc23)cc1 | GB4 | 8492 | inhibitor, partial curve, poor fit
CN(C)CCC(c1ccccc1)c1ccccn1 (stereo not drawn) | CP305 | 6746 | inhibitor, partial curve
CN(C)CCC(c1ccccc1)c1ccccn1 (stereo not drawn) | PC49 | 12589 | inhibitor, single point
CCC(C)(S(=O)(=O)CC)S(=O)(=O)CC | TAB109 | 3548 | inhibitor, single point
CCC(C)(S(=O)(=O)CC)S(=O)(=O)CC | CP260 | 17782 | inhibitor, single point
CCC(C)(S(=O)(=O)CC)S(=O)(=O)CC | CP250 | 398.1 | activator, partial curve
COc1nc(C)nc(Cl)c1NC1=NCCN1 | CP266 | 0.2 | inhibitor
COc1nc(C)nc(Cl)c1NC1=NCCN1 | CP297 | 28.7 | activator, full curve